# From article PMC11497069, “Novel Arf1 Inhibitors Drive Cancer Stem Cell Aging and Potentiate Anti‐Tumor Immunity” (Advanced Science, 2024)
# Chains of the proteins cited; added tags and fusions are not shown.
# UniProt P84077: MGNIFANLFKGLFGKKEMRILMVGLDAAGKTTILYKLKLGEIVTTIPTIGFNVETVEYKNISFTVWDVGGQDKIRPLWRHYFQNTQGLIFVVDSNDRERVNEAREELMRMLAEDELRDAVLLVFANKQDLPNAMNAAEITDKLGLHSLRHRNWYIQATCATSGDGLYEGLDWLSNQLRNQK
# These are yes or no findings as the source states them, for the method shown. Binding seen in cells or lysates may run through a third protein. Some entries that bind do so weakly or less than the wild type. Where a sequence is shown, tags or fusion partners need not be part of it.
# Target: T1, GGA3-FLAG (human) (UniProt Q9NZ52)
# T1 sequence: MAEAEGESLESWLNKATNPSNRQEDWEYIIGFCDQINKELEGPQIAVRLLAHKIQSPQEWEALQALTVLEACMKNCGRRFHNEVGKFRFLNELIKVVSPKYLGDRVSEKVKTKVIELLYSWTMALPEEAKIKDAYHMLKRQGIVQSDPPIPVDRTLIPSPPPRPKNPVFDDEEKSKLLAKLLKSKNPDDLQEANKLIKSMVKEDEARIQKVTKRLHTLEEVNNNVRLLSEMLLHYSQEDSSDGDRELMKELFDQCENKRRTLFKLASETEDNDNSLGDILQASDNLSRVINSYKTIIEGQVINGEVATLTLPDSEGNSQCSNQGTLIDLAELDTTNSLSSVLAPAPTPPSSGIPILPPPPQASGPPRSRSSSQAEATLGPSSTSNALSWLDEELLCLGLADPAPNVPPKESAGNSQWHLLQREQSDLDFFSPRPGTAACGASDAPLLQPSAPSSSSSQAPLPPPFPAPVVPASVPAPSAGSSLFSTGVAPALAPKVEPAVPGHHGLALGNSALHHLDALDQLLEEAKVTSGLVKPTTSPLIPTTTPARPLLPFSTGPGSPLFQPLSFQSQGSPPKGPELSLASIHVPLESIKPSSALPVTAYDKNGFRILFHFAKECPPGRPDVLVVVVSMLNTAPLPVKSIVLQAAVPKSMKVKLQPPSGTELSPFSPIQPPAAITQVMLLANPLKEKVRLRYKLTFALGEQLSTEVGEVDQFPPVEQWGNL
# Assay: co-IP; Huh7 cells transfected with p23-GGA3-FLAG and treated with DMSO, BFA, DU101 or DU102 (GCA also named in the methods) for 24 h; lysed in IP buffer (25 mM Tris-HCl pH 7.4, 150 mM NaCl, 1% NP-40, 1 mM EDTA, 5% glycerol); lysate incubated with EDTA, GTPγS and GDP at 30 °C for 15 min, stopped with MgCl2; Flag magnetic beads at 4 °C overnight; immunoblot with anti-Arf1; the paper calls it GGA3 pull-down
substance,measurement,value
Arf1 (from UniProt P84077 1-181),binding,binds
